One data set concerns biotinyl-Val-oxazolone. Description: self-aminoacylation, catalytic enhancement (BVO) (fold over background); higher = more active; k-Seq, kA / k0A0; sequences stand for … in GGGAAUGGAUCCACAUCUACGAAUUC…UUCACUGCAGACUUGACGAAGCUG
The gist of the method:
(§1)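 The uncatalyzed rate is the low-activity peak of a bimodal Gaussian fit, and catalytic enhancement is median kA divided by it. The kA values came from pseudo-first-order fits, with 1000 bootstraps, of per-sequence fraction reacted measured by streptavidin capture, triplicate qPCR and Illumina sequencing. Mutagenized RNA pools with a 21-nt variable region (0.43 μM) were reacted with each biotinyl-aminoacyl-oxazolone at 2–1250 μM in 50 μL HEPES/NaCl/KCl/MgCl2/CaCl2 buffer with 5% acetonitrile, pH 6.9–7.0, for 90 minutes at room temperature.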

For the next data set, the system named is biotinyl-Ile-oxazolone. Description: self-aminoacylation, catalytic enhancement (BIO) (fold over background); higher = more active; k-Seq, kA / k0A0; sequences stand for … in GGGAAUGGAUCCACAUCUACGAAUUC…UUCACUGCAGACUUGACGAAGCUG
The gist of the method:
as §1

A further data set concerns biotinyl-Met-oxazolone. Kind of data set: self-aminoacylation, catalytic enhancement (BMO) (fold over background); higher = more active; k-Seq, kA / k0A0; sequences stand for … in GGGAAUGGAUCCACAUCUACGAAUUC…UUCACUGCAGACUUGACGAAGCUG
An outline of the steps:
as §1

Variants at the floor of the assay are shown more often than the library holds them.

As to “AUUACUCUGGUCAUCGUGUGA [Fam2.1 aminoacylation ribozyme variant]”, the self-aminoacylation was determined as 1.35 in the data set with biotinyl-Val-oxazolone and 1.46 in the data set with biotinyl-Ile-oxazolone.

As to “AUGACCUUGGUCAUCGAGUGA [Fam2.1 aminoacylation ribozyme variant]”, the self-aminoacylation was 3.1 in the data set on biotinyl-Val-oxazolone and 3.22 in the data set with biotinyl-Ile-oxazolone.

With “AUUACCCUGGUUAUCAAGUGA [Fam2.1 aminoacylation ribozyme variant]”, the self-aminoacylation with biotinyl-Val-oxazolone worked out at 1.66; in the data set with biotinyl-Ile-oxazolone, 1.71. For “ACACGCUUCAAGCAAUCGGUC [Fam1B.1 aminoacylation ribozyme variant]”, the self-aminoacylation in the data set with biotinyl-Val-oxazolone was found to be 1.9; with biotinyl-Ile-oxazolone, 1.99; in the data set on biotinyl-Met-oxazolone, 1.96. On to “CCCCACUUCAAGUAAUCGGUC [Fam1B.1 aminoacylation ribozyme variant]”, for which the results for the self-aminoacylation in the data set on biotinyl-Val-oxazolone, with biotinyl-Ile-oxazolone and with biotinyl-Met-oxazolone were 1.75, 1.71 and 1.55, respectively.

Regarding “GUUCACCUUGGUCAUCGGGUG [Fam2.2 aminoacylation ribozyme variant]”, in the data set with biotinyl-Ile-oxazolone, the self-aminoacylation was 3.45. As for “AUUCCCCUCGGUCAUCGGGUG [Fam2.2 aminoacylation ribozyme variant]”, the self-aminoacylation in the data set with biotinyl-Val-oxazolone was found to be 14; in the data set with biotinyl-Ile-oxazolone it was 14.8; with biotinyl-Met-oxazolone, 21.1. “AAAUUUGCUAAUAGUCGCAAA [Fam3.1 aminoacylation ribozyme variant]”: the self-aminoacylation with biotinyl-Ile-oxazolone was determined as 3.32.

For the sequence “AACUUUGCUAAUAGUCGCAAG [Fam3.1 aminoacylation ribozyme variant]”, the self-aminoacylation in the data set on biotinyl-Val-oxazolone was 1.93. For the sequence “AUACACCUAGGUCAACGGGUG [Fam2.2 aminoacylation ribozyme variant]”, the self-aminoacylation with biotinyl-Val-oxazolone is 1.82; in the data set with biotinyl-Ile-oxazolone, 1.66. Consider “AUUACCCUGCUCUUCGAGUGA [Fam2.1 aminoacylation ribozyme variant]”, for which the self-aminoacylation was 1.79 with biotinyl-Val-oxazolone and 1.35 in the data set with biotinyl-Ile-oxazolone. The corresponding values for “AUUACCCUAGACAUCGAGUGA [Fam2.1 aminoacylation ribozyme variant]” are 4.07 and 3.77. For the sequence “GCACACUUCAAACAAUCGGUC [Fam1B.1 aminoacylation ribozyme variant]”, in the data set with biotinyl-Ile-oxazolone, the self-aminoacylation was 1.98.

As for “CCACUCUUCAAGCAAUAGGUC [Fam1B.1 aminoacylation ribozyme variant]”, the self-aminoacylation in the data set on biotinyl-Val-oxazolone is 0.668; in the data set with biotinyl-Ile-oxazolone, 0.784. Consider “AUUACCCUGGUCAUCGCGUCA [Fam2.1 aminoacylation ribozyme variant]”, for which, in the data set on biotinyl-Ile-oxazolone, the self-aminoacylation was determined as 1.92. With “AUUCACCUAAUUCAUCGGGUG [Fam2.2 aminoacylation ribozyme variant]”, the self-aminoacylation with biotinyl-Val-oxazolone turned out to be 1.82; in the data set with biotinyl-Ile-oxazolone it was 1.74.

With “CUACUUGAAACAAUCGGACUG [Fam1A.1 aminoacylation ribozyme variant]”, the self-aminoacylation was found to be 0.786 with biotinyl-Val-oxazolone and 0.922 in the data set with biotinyl-Ile-oxazolone. For “AUUACCCAGGUCAUCGUGUGA [Fam2.1 aminoacylation ribozyme variant]”, in that order: 1.98 and 1.87. The corresponding values for “CCCCACUUCAAGCAAUCGGUU [Fam1B.1 aminoacylation ribozyme variant]” are 3.68 and 2.66. With “AUUCACCUAGGGCAUCUGGUG [Fam2.2 aminoacylation ribozyme variant]”, the self-aminoacylation worked out at 2.33 with biotinyl-Val-oxazolone and 2.11 with biotinyl-Ile-oxazolone.

Take “AUUCACCUAGUUCAUCGGGUG [Fam2.2 aminoacylation ribozyme variant]”: the self-aminoacylation in the data set with biotinyl-Ile-oxazolone is 1.95. On the same count and under the same terms, the result for “AUUCACCUAUGUCAUGGGGUG [Fam2.2 aminoacylation ribozyme variant]” reads 1.97.

Consider “CGACUUCAAACAAUCGGUGUG [Fam1A.1 aminoacylation ribozyme variant]”, for which the values for the self-aminoacylation in the data set on biotinyl-Val-oxazolone, in the data set with biotinyl-Ile-oxazolone and with biotinyl-Met-oxazolone were 1.59, 1.89 and 1.96, respectively. “CUAAUUCAAACAAUCGGUGUG [Fam1A.1 aminoacylation ribozyme variant]”: the self-aminoacylation was determined as 0.659 with biotinyl-Val-oxazolone and 0.75 with biotinyl-Ile-oxazolone. With “CUUACCCUGGUCAUCGAGUCA [Fam2.1 aminoacylation ribozyme variant]”, the self-aminoacylation in the data set on biotinyl-Val-oxazolone turned out to be 1.07; with biotinyl-Ile-oxazolone, 0.742; in the data set with biotinyl-Met-oxazolone it was 0.897.

On to “AUAACUCUGGUCAUCGAGUGA [Fam2.1 aminoacylation ribozyme variant]”, for which the self-aminoacylation with biotinyl-Val-oxazolone came out at 3.04; in the data set on biotinyl-Ile-oxazolone, 3.06. On to “GUUCACCUAGGUCAUAGGGUG [Fam2.2 aminoacylation ribozyme variant]”, for which the self-aminoacylation in the data set on biotinyl-Val-oxazolone came to 1.4; in the data set on biotinyl-Ile-oxazolone it was 1.59; with biotinyl-Met-oxazolone, 1.5. Turning to “AAUACCCUGGUCAUCGAGUGG [Fam2.1 aminoacylation ribozyme variant]”, the self-aminoacylation in the data set with biotinyl-Val-oxazolone came to 1.83; with biotinyl-Ile-oxazolone, 1.64. The corresponding values for “AUUCACCUAGGACAACGGGUG [Fam2.2 aminoacylation ribozyme variant]” are 1.71 and 1.79.

As for “CCACACCUCAAGCAAUCGCUC [Fam1B.1 aminoacylation ribozyme variant]”, the self-aminoacylation in the data set with biotinyl-Val-oxazolone is 1.75. Regarding “AUUACCGUGGUGAUCGAGUGA [Fam2.1 aminoacylation ribozyme variant]”, the self-aminoacylation in the data set with biotinyl-Ile-oxazolone worked out at 1.9. On to “AAGUAUGCUAAUAGUCGCGAG [Fam3.1 aminoacylation ribozyme variant]”, for which the self-aminoacylation in the data set on biotinyl-Val-oxazolone was 1.68; in the data set with biotinyl-Met-oxazolone, 1.7. Regarding “AUUACCCUGGCCAACGAGUGA [Fam2.1 aminoacylation ribozyme variant]”, the self-aminoacylation was found to be 1.94 in the data set on biotinyl-Val-oxazolone and 1.77 in the data set on biotinyl-Ile-oxazolone. Regarding “CCCCACUUCAAACAAUCGGUC [Fam1B.1 aminoacylation ribozyme variant]”, the self-aminoacylation in the data set with biotinyl-Ile-oxazolone was 1.93; with biotinyl-Met-oxazolone, 2. In the case of “AUUAACCUAGAUCAUCGGGUG [Fam2.2 aminoacylation ribozyme variant]”, the self-aminoacylation in the data set with biotinyl-Val-oxazolone was 1.62; with biotinyl-Ile-oxazolone it was 1.9. On to “AUUUACCUAGUUCAUCGGGUG [Fam2.2 aminoacylation ribozyme variant]”, for which, in the data set with biotinyl-Val-oxazolone, the self-aminoacylation was determined as 1.9. Regarding “CUUCACCUAGCUCAUCGGGUG [Fam2.2 aminoacylation ribozyme variant]”, the self-aminoacylation came out at 2.37 in the data set with biotinyl-Val-oxazolone and 1.76 in the data set on biotinyl-Ile-oxazolone. For the sequence “AUUCUCCUACGUCAUCGGGUG [Fam2.2 aminoacylation ribozyme variant]”, the results for the self-aminoacylation with biotinyl-Val-oxazolone, in the data set on biotinyl-Ile-oxazolone and in the data set on biotinyl-Met-oxazolone were 5.36, 4.89 and 6.97, respectively. For the sequence “AUUCCCCUAGGUCUUCGGGUG [Fam2.2 aminoacylation ribozyme variant]”, the self-aminoacylation with biotinyl-Ile-oxazolone stood at 13.7. In the case of “AAGUUUGCCAAUAGGCGCAAG [Fam3.1 aminoacylation ribozyme variant]”, the results for the self-aminoacylation in the data set with biotinyl-Val-oxazolone and with biotinyl-Ile-oxazolone were 1.02 and 1.04, respectively. Turning to “CCACUCUUCAAGCAAUCGGCC [Fam1B.1 aminoacylation ribozyme variant]”, the self-aminoacylation in the data set on biotinyl-Ile-oxazolone amounted to 1.66; in the data set on biotinyl-Met-oxazolone it was 1.71.

Take “CUACUUCACACAGUCGGUCUG [Fam1A.1 aminoacylation ribozyme variant]”: the self-aminoacylation in the data set on biotinyl-Val-oxazolone came out at 0.731; in the data set on biotinyl-Ile-oxazolone it was 0.65. In the case of “UUUACCCUGGUCAUCGAGUUA [Fam2.1 aminoacylation ribozyme variant]”, the self-aminoacylation with biotinyl-Ile-oxazolone amounted to 3.03. For the sequence “CUACUUCAAACAAUCUAUCUG [Fam1A.1 aminoacylation ribozyme variant]”, the results for the self-aminoacylation in the data set with biotinyl-Val-oxazolone, in the data set with biotinyl-Ile-oxazolone and in the data set with biotinyl-Met-oxazolone were 0.579, 0.507 and 0.461, respectively. As to “AUUACCCUGGCCUUCGAGUGA [Fam2.1 aminoacylation ribozyme variant]”, the self-aminoacylation in the data set on biotinyl-Ile-oxazolone was 1.83.

In the case of “CUAGUUCAAAAAAUCGGUCUG [Fam1A.1 aminoacylation ribozyme variant]”, the figures for the self-aminoacylation in the data set on biotinyl-Val-oxazolone and in the data set with biotinyl-Ile-oxazolone were 0.752 and 0.934, respectively.

Take “AACUUUUCUAAUAGUCGCAAG [Fam3.1 aminoacylation ribozyme variant]”: the self-aminoacylation in the data set with biotinyl-Val-oxazolone was 1.71; in the data set on biotinyl-Ile-oxazolone, 1.97; with biotinyl-Met-oxazolone, 2.11. With “AUUACCUUGGUCCUCGAGUGA [Fam2.1 aminoacylation ribozyme variant]”, in the data set on biotinyl-Ile-oxazolone, the self-aminoacylation is 1.83. Same read-out and setting: to “AAGUUUGCUAAUAGUUGCAAU [Fam3.1 aminoacylation ribozyme variant]” belongs 1.26. “CUACUUAAAACAAUCGCUCUG [Fam1A.1 aminoacylation ribozyme variant]”: the results for the self-aminoacylation with biotinyl-Val-oxazolone and in the data set with biotinyl-Ile-oxazolone were 0.727 and 0.623, respectively. As for “AUUCACCAAGGUCAUCGGGGG [Fam2.2 aminoacylation ribozyme variant]”, the self-aminoacylation in the data set with biotinyl-Val-oxazolone worked out at 1.61. On to “AUUACACUGGUCAUCAAGUGA [Fam2.1 aminoacylation ribozyme variant]”, for which the self-aminoacylation came out at 1.6 in the data set with biotinyl-Val-oxazolone and 1.48 in the data set with biotinyl-Ile-oxazolone. In the case of “AUUCUCCUGGUCAUCGAGUGA [Fam2.1 aminoacylation ribozyme variant]”, the results for the self-aminoacylation in the data set on biotinyl-Val-oxazolone and in the data set on biotinyl-Ile-oxazolone were 3.89 and 3.67, respectively.

The values are drawn from the supplement of paper PMC9233669.
